Some of these results come from one statement about several compounds together.
Biological target: T1, HLA-DP4 (Homo sapiens, UniProt P04440+P20036)
T1 sequence (P20036 29-260): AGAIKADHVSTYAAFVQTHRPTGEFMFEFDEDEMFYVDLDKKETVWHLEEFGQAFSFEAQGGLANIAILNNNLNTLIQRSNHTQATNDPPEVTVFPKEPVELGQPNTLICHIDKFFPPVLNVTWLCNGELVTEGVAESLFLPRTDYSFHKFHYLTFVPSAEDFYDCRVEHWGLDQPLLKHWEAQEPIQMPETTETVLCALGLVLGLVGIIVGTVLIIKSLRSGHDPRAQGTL
T1 sequence (P04440 30-258): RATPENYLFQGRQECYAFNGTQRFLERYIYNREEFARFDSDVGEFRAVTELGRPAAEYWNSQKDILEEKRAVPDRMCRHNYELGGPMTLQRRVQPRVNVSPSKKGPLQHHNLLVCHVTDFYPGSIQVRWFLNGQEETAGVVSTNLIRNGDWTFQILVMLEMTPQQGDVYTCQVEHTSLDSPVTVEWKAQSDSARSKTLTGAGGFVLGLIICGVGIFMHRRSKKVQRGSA
Assay: DP4 competition assay with biotinylated Hep B peptide
Settings: inhibition of biotinylated Hep B binding to HLA-DP4; 5 fold excess test peptide, equal amount for unlabelled Hep B
Method: 2×T175 gave 2.5×10^7 B16 HHDII/DP4 (B16F1 β2M H2Ab1 dKO A35 HHDII/DP4 H7/2E9/F9 p14) cells. This was enough for 5 preps using the following protocol with Mem-PER™ Plus Membrane Protein Extraction Kit (thermo-scientific cat #89842).
5×10^6 cells were resuspended in the growth media by scraping the cells off the surface of the plate with a cell scraper and then centrifuged at 300 g for 5 mins. The cell pellet was washed with 3 ml of Cell Wash Solution and centrifuged at 300 g for 5 mins. The supernatant was removed and discarded. The cells were resuspended in 1.5 ml of Cell Wash Solution and transfer to a 2 ml centrifuge tube and centrifuged at 300 g for 5 mins. The supernatant was discarded. 0.75 ml of permeabilization buffer was added to the cell pellet and vortexed briefly to obtain a homogeneous cell suspension and incubated for 10 mins at 4° C. with constant mixing. The permeabilized cells were centrifuge for 15 mins at 16,000g before carefully removing the supernatant containing cytosolic proteins and transfering to a new tube. 0.5 ml of solubilization buffer was added to the pellet and resuspend prior to incubating at 4° C. for 30 minutes with constant mixing prior to centrifugation at 16,000g for 15 mins at 4° C. The supernatant containing solubilized membrane and membrane-associated proteins was transfered to a new tube. Aliquots were frozen at −80° C. for future use. 12.5 μl Halt™ Protease and Phosphatase Inhibitor Cocktail, EDTA-free (100X) thermo-scientific (Catalog number 78445) was added prior to freezing.
High binding plates were coated with streptavidin (Sigma S4762 at 1 mg/ml) 1/500 in PBS and incubated overnight at 4° C. The plates were blocked with 1% BSA in PBS for 4 hrs at room temp and washed 3×PBS/0.5% Tweenx. 450 μl of cell prep lysate (B16F1 B16 HHDII/DP4 H7/2E9/F9) was mixed with 50 μg test peptide (see below) or 10 μg of unlabelled Hep B peptide for 30 mins. 10 μg biotinylated Hep B peptide was added & incubated for 4 hrs at 37° C.:
Lysate/peptide mix was added to the plates at 100 μl/well and incubated for 4 hrs at room temperature. Plates were washed 3× with PBS/0.5% Tween. 100 μl per well of Leinco anti-Human HLA-DP4 clone B7/21 #H260 1 mg/ml at 1/500 dilution in 1% BSA/PBS was added and incubated for 1 hr at room temperature prior to washing 3× PBS/0.5% Tween. Goat anti-mouse lgG3-HRP at 0.5 mg/ml 1/500 100 μl per well (Invitrogen #M32607) diluted in 1% BSA/PBS) was added for 1 hr at room temperature prior to washing and adding 150 μl of TMB substrate to each well. The reaction was stopped with 50 μl of 2N H2SO4 and plates read plate at 450 nm.
To ensure that the biotinylation of Hep B had not interfered with its binding, HLA-DP4 was incubated with equal amounts of biotinylated and unlabelled Hep B peptide. Unlabelled peptide competed equally reducing binding by 47% (FIG. 53b).
The biotinylated HepB peptide was then incubated with a 5 fold excess of the unlabelled homocitrulline peptides. All peptides inhibited the binding of biotinylated Hep B to HLA-DP4 but to varying levels (FIG. 53c-e).

% inhibition, > 60%:
EIN-hcit-RTEMENEFVLI-hcit-hcit-DVDE [Cyk8 182-202 Hcit]
HACTQ-hcit-FSH(N)EEIAMATVTA [Aldolase A 238-256 Hcit]
IGGVILFHETLYQ-hcit-ADDGRP [Aldolase A 74-93 Hcit]
KFASFID-Hcit-VRFLEQQN-Hcit-MLE [Cyk8 101-120 Hcit]
LEQQN-hcit-MLET-hcit-WSLLQQQ-hcit-T [Cyk8 112-131 Hcit]
LREYQELMNV-hcit-LALDIEI [Cyk8 371-388 Hcit]
LSDHHVYLEGTLL-hcit-PNMVT [Aldolase A 217-235 Hcit]

Same assay, conditions: inhibition of biotinylated Hep B binding to HLA-DP4; 5 fold excess test peptide, equal amount for unlabelled Hep B; listed as Cyk8 281-399 Hcit

% inhibition, > 60%:
hcit-LALDIEIATYR-hcit-LLEGEE [Cyk8 381-399 Hcit]
